Measurements reported in publication PMC6167383, “Regulatory control of DNA end resection by Sae2 phosphorylation” (Nature Communications, 2018).
Results are given in words; binding and its absence hold for the method and conditions named.

Molecular target: C-terminal domain of pSae2 (residues 170-345) dephosphorylated with λ phosphatase (pSae2 ΔN169 λ) (S. cerevisiae) (UniProt P46946)
Experiment: SEC; Superose 6 10/300 GL, 50 mM Tris-HCl pH 7.5, 150 mM NaCl, 10% glycerol, 0.5 mM β-mercaptoethanol, 4 °C; ~75 μg of the Sae2 variant, mock-treated or treated with λ phosphatase for 90 min at 30 °C before loading; absorbance at 215 nm; both purified

binding: no binding
B1: C-terminal domain of pSae2 (residues 170-345) dephosphorylated with λ phosphatase (pSae2 ΔN169 λ) (domain or fragment, UniProt P46946 170-345)
chain: IELENPESTSPNLYKNVKDNFLFDFNTNPLTKRAWILEDFRPNEDIAPVKRGRRKLERFYAQVGKPEDSKHRSLSVVIESQNSDYEFAFDNLRNRSKSPPGFGRLDFPSTQEGNEDKKKSQEIIRRKTKYRFLMASNNKIPPYEREYVFKREQLNQIVDDGCFFWSDKLLQIYARC
modifications: dephosphorylated with λ phosphatase
